In the supplement of paper PMC8728848:
The other results are listed elsewhere or left out.

Assays:
Experiment in all cases: glycan array binding signal (z-score within array); higher = stronger binding
Conditions in all cases: glycan notation: IUPAC condensed, linker removed
[1] = target: Neu5Ac(a2-3)Gal6S(b1-4)[Fuc(a1-3)]GlcNAc
Summary of the method: (§1)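 Columns mapping to the same glycan were averaged after glycan names were converted to IUPAC-condensed notation. The data come from 3228 arrays in the Consortium for Functional Glycomics database, limited to those with an available protein sequence. Binding is reported as a within-array Z-score averaged across arrays of one protein sequence and across linkers.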

[2] = target: Neu5Ac(a2-3)GalNAc
Summary of the method: as §1

[3] = target: Neu5Ac(a2-3)GalNAc(b1-4)GlcNAc
Summary of the method: as §1

[4] = target: Neu5Ac(a2-3)[GalNAc(b1-4)]Gal(b1-4)Glc
Summary of the method: as §1

[5] = target: Neu5Ac(a2-3)[GalNAc(b1-4)]Gal(b1-4)GlcNAc
Summary of the method: as §1

[6] = target: Neu5Ac(a2-3)[GalNAc(b1-4)]Gal(b1-4)GlcNAc(b1-3)GalNAc
Summary of the method: as §1

[7] = target: Neu5Ac(a2-3)[Neu5Ac(a2-6)]GalNAc
Summary of the method: as §1

[8] = target: Neu5Ac(a2-6)Gal
Summary of the method: as §1

[9] = target: Neu5Ac(a2-6)Gal(b1-4)Glc
Summary of the method: as §1

[10] = target: Neu5Ac(a2-6)Gal(b1-4)GlcNAc
Summary of the method: as §1

[11] = target: Neu5Ac(a2-6)Gal(b1-4)GlcNAc(b1-2)Man(a1-3)Man(b1-4)GlcNAc(b1-4)GlcNAc
Summary of the method: as §1

[12] = target: Neu5Ac(a2-6)Gal(b1-4)GlcNAc(b1-2)Man(a1-3)[Gal(b1-4)GlcNAc(b1-2)Man(a1-6)]Man(b1-4)GlcNAc(b1-4)GlcNAc
Summary of the method: as §1

[13] = target: Neu5Ac(a2-6)Gal(b1-4)GlcNAc(b1-2)Man(a1-3)[GlcNAc(b1-2)Man(a1-6)]Man(b1-4)GlcNAc(b1-4)GlcNAc
Summary of the method: as §1

[14] = target: Neu5Ac(a2-6)Gal(b1-4)GlcNAc(b1-2)Man(a1-3)[GlcNAc(b1-2)Man(b1-4)GlcNAc(b1-2)Man(a1-6)]Man(b1-4)GlcNAc(b1-4)GlcNAc
Summary of the method: as §1

[15] = target: Neu5Ac(a2-6)Gal(b1-4)GlcNAc(b1-2)Man(a1-3)[Man(a1-6)]Man(b1-4)GlcNAc(b1-4)GlcNAc
Summary of the method: as §1

[16] = target: Neu5Ac(a2-6)Gal(b1-4)GlcNAc(b1-2)Man(a1-3)[Neu5Ac(a2-6)Gal(b1-4)GlcNAc(b1-2)Man(a1-6)]Man(b1-4)GlcNAc(b1-4)GlcNAc
Summary of the method: as §1

[17] = target: Neu5Ac(a2-6)Gal(b1-4)GlcNAc(b1-2)Man(a1-6)Man(b1-4)GlcNAc(b1-4)GlcNAc
Summary of the method: as §1

[18] = target: Neu5Ac(a2-6)Gal(b1-4)GlcNAc(b1-2)Man(a1-6)[Gal(b1-4)GlcNAc(b1-2)Man(a1-3)]Man(b1-4)GlcNAc(b1-4)GlcNAc
Summary of the method: as §1

[19] = target: Neu5Ac(a2-6)Gal(b1-4)GlcNAc(b1-2)Man(a1-6)[GlcNAc(b1-2)Man(a1-3)]Man(b1-4)GlcNAc(b1-4)GlcNAc
Summary of the method: as §1

[20] = target: Neu5Ac(a2-6)Gal(b1-4)GlcNAc(b1-2)Man(a1-6)[Man(a1-3)]Man(b1-4)GlcNAc(b1-4)GlcNAc
Summary of the method: as §1

[21] = target: Neu5Ac(a2-6)Gal(b1-4)GlcNAc(b1-3)Gal(b1-3)GlcNAc
Summary of the method: as §1

[22] = target: Neu5Ac(a2-6)Gal(b1-4)GlcNAc(b1-3)Gal(b1-4)GlcNAc
Summary of the method: as §1

[23] = target: Neu5Ac(a2-6)Gal(b1-4)GlcNAc(b1-3)Gal(b1-4)GlcNAc(b1-3)Gal(b1-4)GlcNAc
Summary of the method: as §1

[24] = target: Neu5Ac(a2-6)Gal(b1-4)GlcNAc(b1-3)Gal(b1-4)[Fuc(a1-3)]GlcNAc(b1-3)Gal(b1-4)[Fuc(a1-3)]GlcNAc
Summary of the method: as §1

[25] = target: Neu5Ac(a2-6)Gal(b1-4)GlcNAc(b1-3)GalNAc
Summary of the method: as §1

[26] = target: Neu5Ac(a2-6)Gal(b1-4)GlcNAc6S
Summary of the method: as §1

[27] = target: Neu5Ac(a2-6)GalNAc
Summary of the method: as §1

[28] = target: Neu5Ac(a2-6)GalNAc(b1-4)GlcNAc
Summary of the method: as §1

[29] = target: Neu5Ac(a2-6)GlcNAc(b1-4)GlcNAc
Summary of the method: as §1

[30] = target: Neu5Ac(a2-6)GlcNAc(b1-4)GlcNAc(b1-4)GlcNAc
Summary of the method: as §1

[31] = target: Neu5Ac(a2-8)Neu5Ac
Summary of the method: as §1

[32] = target: Neu5Ac(a2-8)Neu5Ac(a2-3)Gal(b1-4)Glc
Summary of the method: as §1

[33] = target: Neu5Ac(a2-8)Neu5Ac(a2-3)[GalNAc(b1-4)]Gal(b1-4)Glc
Summary of the method: as §1

[34] = target: Neu5Ac(a2-8)Neu5Ac(a2-8)Neu5Ac
Summary of the method: as §1

[35] = target: Neu5Ac(a2-8)Neu5Ac(a2-8)Neu5Ac(a2-3)Gal(b1-4)Glc
Summary of the method: as §1

[36] = target: Neu5Ac(a2-8)Neu5Ac(a2-8)Neu5Ac(a2-3)[GalNAc(b1-4)]Gal(b1-4)Glc
Summary of the method: as §1

[37] = target: Neu5Ac(a2-8)Neu5Ac(a2-8)Neu5Ac(a2-8)Neu5Ac(a2-3)[GalNAc(b1-4)]Gal(b1-4)Glc
Summary of the method: as §1

[38] = target: Neu5Ac(b2-6)Gal(b1-4)GlcNAc
Summary of the method: as §1

[39] = target: Neu5Ac(b2-6)GalNAc
Summary of the method: as §1

[40] = target: Neu5Ac9Ac(a2-3)Gal(b1-3)GlcNAc
Summary of the method: as §1

[41] = target: Neu5Ac9Ac(a2-3)Gal(b1-4)GlcNAc
Summary of the method: as §1

[42] = target: Neu5Ac9Ac(a2-6)Gal(b1-4)GlcNAc
Summary of the method: as §1

[43] = target: Neu5Gc(a2-3)Gal(b1-3)GlcNAc
Summary of the method: as §1

[44] = target: Neu5Gc(a2-3)Gal(b1-3)[Fuc(a1-4)]GlcNAc
Summary of the method: as §1

[45] = target: Neu5Gc(a2-3)Gal(b1-4)Glc
Summary of the method: as §1

[46] = target: Neu5Gc(a2-3)Gal(b1-4)GlcNAc
Summary of the method: as §1

[47] = target: Neu5Gc(a2-3)Gal(b1-4)[Fuc(a1-3)]GlcNAc
Summary of the method: as §1

[48] = target: Neu5Gc(a2-6)Gal(b1-4)GlcNAc
Summary of the method: as §1

[49] = target: Neu5Gc(a2-6)GalNAc
Summary of the method: as §1

[50] = target: Neu5Gc(b2-6)Gal(b1-4)GlcNAc
Summary of the method: as §1

B1: PEB4 (Campylobacter jejuni), A1VYV6 (protein)
chain: MKKFSLVAAALIAGVALNVNAATVATVNGKSISDAEVSEFFAPMLRGQDFKTLPDNQKKALIQQYIMQDLILQDAKKQNLEKDPLYTKELDRAKDAILVNVYQEKILNTIKIDAAKVKAFYDQNKDKYVKPARVQAKHILVATEKEAKDIINELKGLKGKELDAKFSELAKEKSIDPGSKNQGGELGWFDQSTMVKPFTDAAFALKNGTITTTPVKTNFGYHVILKENSQAKGQIKFDEVKQGIENGLKFEEFKKVINQKGQDLLNSAKVEYK
glycan array binding signal (z-score) [1]: 2.8
glycan array binding signal (z-score) [2]: -0.192
glycan array binding signal (z-score) [3]: -1.65
glycan array binding signal (z-score) [4]: -1.19
glycan array binding signal (z-score) [5]: 0.794
glycan array binding signal (z-score) [6]: -0.544
glycan array binding signal (z-score) [7]: -0.037
glycan array binding signal (z-score) [8]: 0.075
glycan array binding signal (z-score) [9]: -0.082
glycan array binding signal (z-score) [10]: -0.245
glycan array binding signal (z-score) [11]: 0.508
glycan array binding signal (z-score) [12]: 0.001
glycan array binding signal (z-score) [13]: 0.605
glycan array binding signal (z-score) [14]: -0.096
glycan array binding signal (z-score) [15]: -0.137
glycan array binding signal (z-score) [16]: 0.063
glycan array binding signal (z-score) [17]: -0.33
glycan array binding signal (z-score) [18]: -0.19
glycan array binding signal (z-score) [19]: -1.16
glycan array binding signal (z-score) [20]: 0.354
glycan array binding signal (z-score) [21]: -0.889
glycan array binding signal (z-score) [22]: -0.672
glycan array binding signal (z-score) [23]: 0.084
glycan array binding signal (z-score) [24]: -0.544
glycan array binding signal (z-score) [25]: 0.725
glycan array binding signal (z-score) [26]: 0.427
glycan array binding signal (z-score) [27]: -1.56
glycan array binding signal (z-score) [28]: -0.144
glycan array binding signal (z-score) [29]: -0.701
glycan array binding signal (z-score) [30]: 0.131
glycan array binding signal (z-score) [31]: -0.265
glycan array binding signal (z-score) [32]: -0.705
glycan array binding signal (z-score) [33]: -0.055
glycan array binding signal (z-score) [34]: -0.324
glycan array binding signal (z-score) [35]: -0.607
glycan array binding signal (z-score) [36]: -0.327
glycan array binding signal (z-score) [37]: -0.575
glycan array binding signal (z-score) [38]: 0.256
glycan array binding signal (z-score) [39]: -0.906
glycan array binding signal (z-score) [40]: -0.527
glycan array binding signal (z-score) [41]: -1.05
glycan array binding signal (z-score) [42]: -1.18
glycan array binding signal (z-score) [43]: 0.201
glycan array binding signal (z-score) [44]: 1.3
glycan array binding signal (z-score) [45]: -0.455
glycan array binding signal (z-score) [46]: -0.247
glycan array binding signal (z-score) [47]: -0.805
glycan array binding signal (z-score) [48]: -0.439
glycan array binding signal (z-score) [49]: -0.106
glycan array binding signal (z-score) [50]: 0.497
